The source of these data is patent US8349579B2, “Galectin-3 cleavage as a marker for matrix metalloproteinase activity in cancer” (Wayne State University, priority 2007, dated 2013).

For the series, the system named is MMP-2 and -9. Description: Cleavage of galectin-3 mutants substituted around the MMP cleavage site. It is filed as biochemical, human.

As to “Y63P: galectin-3 mutant with Y63P substitution around the MMP cleavage site”, the “cleavage at the Ala62-Tyr63 site” value is given as “resistance to cleavage”. Also, the “polypeptide produced from the new cleavage site” value (alternate cleavage at Gly32-Ala33) is roughly 27 kDa.
